Experimental data from publication PMC13534636.
Results are given in words; binding and its absence hold for the method and conditions named. Some binding calls cover weakened binding; strength is not graded here.

Amino acid sequences for entries named in this document (tags omitted).
UniProt P35637: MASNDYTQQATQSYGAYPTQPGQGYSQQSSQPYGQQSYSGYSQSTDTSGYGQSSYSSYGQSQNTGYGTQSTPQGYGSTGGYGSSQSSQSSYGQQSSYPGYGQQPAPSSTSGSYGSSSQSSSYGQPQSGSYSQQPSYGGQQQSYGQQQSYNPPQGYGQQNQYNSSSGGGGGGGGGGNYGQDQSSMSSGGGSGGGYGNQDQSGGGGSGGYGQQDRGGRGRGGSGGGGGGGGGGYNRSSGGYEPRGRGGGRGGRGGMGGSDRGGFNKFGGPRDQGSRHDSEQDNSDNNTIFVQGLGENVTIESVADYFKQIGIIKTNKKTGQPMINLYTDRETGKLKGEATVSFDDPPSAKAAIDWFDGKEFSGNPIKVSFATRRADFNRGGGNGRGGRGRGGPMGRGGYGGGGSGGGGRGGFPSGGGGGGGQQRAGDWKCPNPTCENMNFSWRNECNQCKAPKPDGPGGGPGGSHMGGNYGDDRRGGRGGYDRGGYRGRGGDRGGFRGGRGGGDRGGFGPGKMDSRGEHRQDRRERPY
UniProt P41161: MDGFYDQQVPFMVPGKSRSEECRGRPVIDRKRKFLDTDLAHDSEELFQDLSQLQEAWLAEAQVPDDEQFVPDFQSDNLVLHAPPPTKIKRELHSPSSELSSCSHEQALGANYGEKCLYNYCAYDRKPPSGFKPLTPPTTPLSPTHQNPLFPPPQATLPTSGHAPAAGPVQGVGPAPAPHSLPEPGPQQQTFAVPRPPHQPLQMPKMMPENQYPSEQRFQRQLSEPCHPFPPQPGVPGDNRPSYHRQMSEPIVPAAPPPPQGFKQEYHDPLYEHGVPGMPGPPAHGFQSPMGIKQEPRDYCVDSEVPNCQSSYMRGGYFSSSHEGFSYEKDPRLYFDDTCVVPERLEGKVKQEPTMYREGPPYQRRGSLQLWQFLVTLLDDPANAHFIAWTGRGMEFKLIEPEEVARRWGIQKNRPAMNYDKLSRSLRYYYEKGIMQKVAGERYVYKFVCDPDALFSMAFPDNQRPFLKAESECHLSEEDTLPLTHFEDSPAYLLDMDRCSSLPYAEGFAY
UniProt Q02078: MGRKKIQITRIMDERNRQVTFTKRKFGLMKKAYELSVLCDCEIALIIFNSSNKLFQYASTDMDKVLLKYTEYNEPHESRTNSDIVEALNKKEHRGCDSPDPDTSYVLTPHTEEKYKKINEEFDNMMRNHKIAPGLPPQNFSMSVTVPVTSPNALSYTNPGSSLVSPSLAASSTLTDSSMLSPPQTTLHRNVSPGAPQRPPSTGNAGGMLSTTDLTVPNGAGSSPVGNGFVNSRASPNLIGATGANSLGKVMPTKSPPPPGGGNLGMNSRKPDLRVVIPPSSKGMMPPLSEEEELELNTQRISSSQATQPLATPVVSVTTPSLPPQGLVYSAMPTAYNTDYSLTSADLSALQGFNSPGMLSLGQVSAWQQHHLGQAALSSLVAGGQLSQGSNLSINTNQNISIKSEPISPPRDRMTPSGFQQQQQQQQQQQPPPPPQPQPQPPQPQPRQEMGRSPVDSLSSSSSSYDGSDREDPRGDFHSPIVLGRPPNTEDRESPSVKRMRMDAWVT

Target: FUS recombinant protein (IP) (UniProt P35637)
Assay: co-IP; recombinant FUS (1 µg) incubated overnight at 4 °C with ETV5-CFP (1 µg) and/or MEF2A-mCherry (1 µg) and FUS antibody (sc-47711) or control IgG in 75 mM Hepes pH 7.3, 100 mM KOAc, 1% NP-40, 2.5% glycerol, 0.5 mM DTT; A/G magnetic beads, washed three times with RIPA; western blot for FUS, ETV5, MEF2A; both purified

Substance	binding
ETV5-CFP (from UniProt P41161 1-510)	binds
MEF2A-mCherry (from UniProt Q02078 1-507)	binds
